We go through 32 molecules from PubChem BioAssay AID330 (DTP/NCI, 2004).

The assay relates to P388 leukemia ip, CD2F1 mice, survival T/C. Briefly: NCI In Vivo Anticancer Drug Screen. Data for tumor model P388 Leukemia (intraperitoneal) in CD2F1 (CDF1) mice. The following applies: T/C endpoint: median survival time, higher T/C = longer survival.
[1] abbreviates: dose: 200.0 mg/kg/injection, schedule: Q01DX009 (ip), vehicle: saline with Tween-80.
Where [2] appears, read: dose: 50.0 mg/kg/injection, schedule: Q01DX009 (ip), vehicle: saline.
The mark [3] stands for this setting: dose: 100.0 mg/kg/injection, schedule: Q01DX009 (ip), vehicle: saline.
Setting [4] is: dose: 200.0 mg/kg/injection, schedule: Q01DX009 (ip), vehicle: saline.
Setting [5] is: dose: 200.0 mg/kg/injection, schedule: Q01DX001 (ip), vehicle: saline.
[6] abbreviates: dose: 400.0 mg/kg/injection, schedule: Q01DX001 (ip), vehicle: saline.
Where [7] appears, read: dose: 200.0 mg/kg/injection, schedule: Q01DX009 (ip), vehicle: Klucel (hydroxypropylcellulose) (HPC).
The mark [8] stands for this setting: dose: 100.0 mg/kg/injection, schedule: Q01DX009 (ip), vehicle: Klucel (hydroxypropylcellulose) (HPC).
[9] abbreviates: dose: 400.0 mg/kg/injection, schedule: Q04DX002 (ip), vehicle: saline with Tween-80.
Where [10] appears, read: dose: 42.25 mg/kg/injection, schedule: Q04DX002 (ip), vehicle: suspension in saline.
The mark [11] stands for this setting: dose: 84.5 mg/kg/injection, schedule: Q04DX002 (ip), vehicle: suspension in saline.
Where [12] appears, read: dose: 200.0 mg/kg/injection, schedule: Q01DX005 (ip), vehicle: saline with Tween-80.
Setting [13] is: dose: 50.0 mg/kg/injection, schedule: Q01DX005 (ip), vehicle: saline with Tween-80.
Setting [14] is: dose: 100.0 mg/kg/injection, schedule: Q01DX005 (ip), vehicle: saline with Tween-80.

The list does not hold the whole screen: it gathers tests that were run many times, whatever their T/C, doses with no T/C, and many T/C values between a quarter and a half above the control. Further doses and runs are listed elsewhere. T/C is the treated group as % of the vehicle group. Some doses have a count of surviving animals in place of a T/C: the source holds a T/C of zero for them, seemingly a mark for toxic or unscored doses. Some doses without a T/C left all or most animals alive at the check, yet need not have been tolerated: survival well below the control is almost never listed, so the zero probably covers shortened survival too. Survivors were counted at the toxicity check, usually on the fifth day, unless a day is given; later deaths do not show. Schedules are NCI's codes, read here as Q, the interval in days (D) or hours (H), X, the number of doses. For survival time, the PubChem record calls one and a half times the control and up active, and a quarter to a half above the control has no call in these data; cut-offs in other NCI protocols can differ.

On to `COc1ccc(/C=C/c2ccc3ccccc3[n+]2C)c(OC)c1OC`, for which the T/C is, setting by setting: (dose: 2.5 mg/kg/injection, schedule: Q01DX009 (ip), vehicle: Klucel (hydroxypropylcellulose) (HPC)) 125 % of control; (dose: 10.0 mg/kg/injection, schedule: Q01DX009 (ip), vehicle: Klucel (hydroxypropylcellulose) (HPC)) 127 % of control. In addition, the survivor count is 1 of 6 (dose: 20.0 mg/kg/injection, schedule: Q01DX009 (ip), vehicle: Klucel (hydroxypropylcellulose) (HPC)) and 0 of 6 (dose: 40.0 mg/kg/injection, schedule: Q01DX009 (ip), vehicle: Klucel (hydroxypropylcellulose) (HPC)).
Turning to `COc1ccc(-c2c3c(cc4cc5c(cc24)OCO5)C(=O)OC3)cc1OC`, the survivor count (dose: 192.0 mg/kg/injection, schedule: Q01DX009 (ip), vehicle: Klucel (hydroxypropylcellulose) (HPC)) is reported as 5 of 5.
In the case of `Nc1ccc(C(=O)c2ccccc2)cc1`, the survivor count under setting [1] was 4 of 6.
On to `Cc1cc(C)c[n+]([O-])c1`, for which the survivor count under setting [2] was 6 of 6, the survivor count under setting [3] is 6 of 6 and the survivor count under setting [4] was 5 of 6.
As for `N#CC(C#N)=CC(C#N)C#N`, the survivor count (dose: 100.0 mg/kg/injection, schedule: Q01DX005 (ip), vehicle: saline) is listed as 0 of 5 and the survivor count (dose: 200.0 mg/kg/injection, schedule: Q01DX005 (ip), vehicle: saline) is given as 0 of 5.
On to `NCCOc1c2occc2cc2ccc(=O)oc12`, for which the survivor count runs as follows: under setting [5], 0 of 6; under setting [6], 0 of 6.
As to `Nc1cc2ncccc2c2ccccc12`, the survivor count under setting [3] is given as 6 of 6.
On to `O=C1c2ccncc2C(=O)c2c(O)ccc(O)c21`, for which the survivor count (dose: 200.0 mg/kg/injection, schedule: Q01DX009 (ip), vehicle: distilled water + Tween-80) was 0 of 6.
Take `CCOC(=O)c1c[nH]c2c(Cl)c(Cl)ccc2c1=O`: under setting [7], the survivor count was 6 of 6.
With `CC(=O)Cc1c(-c2ccccc2)nc(=S)[nH]c1C`, the survivor count is reported as 6 of 6 under setting [2] and 6 of 6 under setting [3].
`O=C(CI)NCCNc1cccc2c(S(=O)(=O)O)cccc12`: the survivor count was 5 of 6 (dose: 50.0 mg/kg/injection, schedule: Q01DX009 (ip), vehicle: saline with Tween-80) and 4 of 6 under setting [1].
Regarding `N=C(N)SCc1nc(-c2ccc(Cl)cc2)no1`, the survivor count was 4 of 6 under setting [3] and 4 of 6 under setting [4].
On to `Cc1nnc2c(c(=O)n(C)c(=O)n2C)[n+]1[O-]`, for which the survivor count (dose: 100.0 mg/kg/injection, schedule: Q01DX001 (ip), vehicle: saline) is 0 of 6; the survivor count under setting [5] was 0 of 6; the survivor count under setting [6] is listed as 0 of 6.
Consider `Clc1ccccc1N=Cc1ccc(C=Nc2ccccc2Cl)cc1`, for which the survivor count is listed as 5 of 6 (dose: 50.0 mg/kg/injection, schedule: Q01DX009 (ip), vehicle: Klucel (hydroxypropylcellulose) (HPC)); 6 of 6 under setting [8]; 6 of 6 under setting [7].
In the case of `N#CC(=O)c1ccccc1`, the survivor count reads like this: (dose: 25.0 mg/kg/injection, schedule: Q04DX003 (ip), vehicle: saline with Tween-80) 2 of 6; (dose: 50.0 mg/kg/injection, schedule: Q04DX003 (ip), vehicle: saline with Tween-80) 0 of 6; (dose: 100.0 mg/kg/injection, schedule: Q04DX003 (ip), vehicle: saline with Tween-80) 0 of 6; (dose: 200.0 mg/kg/injection, schedule: Q04DX003 (ip), vehicle: saline with Tween-80) 0 of 6.
As for `COC(=O)[C@@H]1[C@@H]2O[C@@H]2[C@H]2O[C@H]2[C@H]1C(=O)O`, the survivor count (dose: 100.0 mg/kg/injection, schedule: Q01DX001 (ip), vehicle: Klucel (hydroxypropylcellulose) (HPC)) was 6 of 6 and the survivor count (dose: 200.0 mg/kg/injection, schedule: Q01DX001 (ip), vehicle: Klucel (hydroxypropylcellulose) (HPC)) is recorded as 6 of 6.
On to `C=CCc1ccccc1C1=[N+](C)C(C)(C)CO1`, for which the survivor count runs as follows: (dose: 100.0 mg/kg/injection, schedule: Q04DX002 (ip), vehicle: saline with Tween-80) 6 of 6; (dose: 200.0 mg/kg/injection, schedule: Q04DX002 (ip), vehicle: saline with Tween-80) 1 of 6; under setting [9], 0 of 6.
As to `NNC(=O)CNc1ccccc1F`, where the note is “dose: 240.0 mg/kg/injection, schedule: Q01DX005 (ip), vehicle: saline”, the survivor count is 0 of 6.
Take `O=c1c(O)c(O)c1=O.[NH2-].[NH2-].[NH2-].[NH2-].[NH2-].[Ru+5]`: the T/C reads like this: (dose: 21.12 mg/kg/injection, schedule: Q04DX002 (ip), vehicle: suspension in saline, evaluated on day 20) 127 % of control; (dose: 21.12 mg/kg/injection, schedule: Q04DX002 (ip), vehicle: suspension in saline, evaluated on day 30) 140 % of control; under setting [10], 127 % of control; under setting [11], 134 % of control. Moreover, the survivor count under setting [10] was 5 of 6; the survivor count (dose: 84.5 mg/kg/injection, schedule: Q04DX002 (ip), vehicle: saline) is 1 of 6; the survivor count under setting [11] is 0 of 6; the survivor count (dose: 169.0 mg/kg/injection, schedule: Q04DX002 (ip), vehicle: saline) was 0 of 6; the survivor count (dose: 338.0 mg/kg/injection, schedule: Q04DX002 (ip), vehicle: saline) was 0 of 6.
As for `CCN(CC)CCN=c1c(C)nc(C#N)c(N)n1O`, the T/C (dose: 40.0 mg/kg/injection, schedule: Q01DX009 (ip), vehicle: saline with Tween-80) is 126 % of control.
For `CSc1nc(Cl)c(Br)c(N2CC2)n1`, under setting [12], the survivor count is recorded as 0 of 6.
For `CN1CC2Cc3ccc(O)cc3C(C)(C2)C1` (stereo not drawn), the survivor count reads like this: (dose: 100.0 mg/kg/injection, schedule: Q01DX009 (ip), vehicle: saline with Tween-80) 0 of 6; under setting [1], 0 of 6.
`CCOC(=O)c1cc(-c2cc(C(=O)OCC)c3ccccc3n2)nc2ccccc12`: the survivor count by setting is: under setting [13], 6 of 6; under setting [12], 6 of 6.
For `CC(=O)[O][Hg][c]1s[c]([Hg][O]C(C)=O)[c]([Hg][O]C(C)=O)[c]1[Hg][O]C(C)=O`, the T/C reads like this: (dose: 1.5 mg/kg/injection, schedule: Q01DX009 (ip), vehicle: saline with Tween-80) 130 % of control; (dose: 6.0 mg/kg/injection, schedule: Q01DX009 (ip), vehicle: saline with Tween-80) 145 % of control.
Consider `CCOC(=O)/C=C1\COc2nc(N)[nH]c(=O)c2N1`, for which the survivor count (dose: 50.0 mg/kg/injection, schedule: Q01DX005 (ip), vehicle: Klucel (hydroxypropylcellulose) (HPC)) is on record as 6 of 6.
For the molecule `CC(C)(O)c1cccc2c(C(C)(C)O)cccc12`, the survivor count under setting [8] is 6 of 6.
`CCOCC(=O)O`: for the setting “dose: 400.0 mg/kg/injection, schedule: Q01DX009 (ip), vehicle: saline”, the survivor count is reported as 0 of 6.
Turning to `CC(C)c1ccc(C[n+]2ccccc2/C=N/O)cc1`, the survivor count is recorded as 2 of 5 under setting [13], 0 of 5 under setting [14] and 0 of 5 under setting [12].
For `CC(C)COC(=O)N1c2ccccc2C=CC1OCC(C)C` (stereo not drawn), the survivor count is, setting by setting: (dose: 25.0 mg/kg/injection, schedule: Q01DX005 (ip), vehicle: saline with Tween-80) 0 of 6; under setting [13], 0 of 6; under setting [14], 0 of 6; under setting [12], 0 of 6.
Consider `Nc1ncnc2c1CCc1ccccc1-2`, for which the survivor count under setting [9] was 1 of 6.
As to `CCCCCCCCCCCCCCCCCC(=O)CC(=O)C(F)(F)F` (tested in a mixture with another compound), the survivor count under setting [1] was 2 of 6.
In the case of `CC(=O)Oc1ccccc1C(=O)OC1CC(C)CCC1C(C)C` (stereo not drawn), the survivor count (dose: 100.0 mg/kg/injection, schedule: Q01DX005 (ip), vehicle: Klucel (hydroxypropylcellulose) (HPC)) is given as 6 of 6.
